Where “and” joins values, the source holds several entries; their conditions need not be identical. Equal values may be shown once. The name of at least one read-out is uncertain. Some entries share one result that the patent states for a list of compounds.
Tested on: cortical neurons
Test: neurite growth of embryonic mouse neurons (total neurite length/neuron, MAP2 immunostaining)
Assay type: cell-based
Details: for effect on relative neurite length as compared to synaptamide: FIG. 3, relative to untreated controls
Description: To obtain embryonic mouse neurons for analysis, pregnant female mice were killed by cervical dislocation after exposure to CO2 inhalation. Embryonic neurons were prepared from E18 or P0 mouse hippocampi or cortex and cultured as described previously (Calderon and Kim, J. Neurochem., 90(4):979-88 (2004), errata in J Neurochem., September; 90(6):1540 (2004)), with slight modification. Briefly, hippocampi or cotices were dissected and dissociated by a method using either 0.25% trypsin (Gibco Invitrogen Corporation, Grand Island, N.Y.) in Hank's balanced salt solution (HBSS) or papain (20-30 U/mL) in dissociation media containing cysteine at 37° C. for 15 min. After the dissociation solution was aspirated off, cells were washed with same volume of HBSS, suspended in neurobasal medium (Gibco) containing 2% B27 supplement (Gibco), 1% glutamine/glutamax mix (1:4) (Gibco), 100 U/ml penicillin (Gibco) and 100 μg/ml streptomycin (Gibco), and seeded on poly-D-lysine chambered slides (Lab-Tek, Naperville, Ill.) at a density of 30,000 cells/cm^2. On the second day after seeding, the cells were treated with fatty acids, synaptamide or one of Compounds 1-50 for 48 h. Docosahexaenoic acid (DHA) and oleic acid (OA) were complexed with fatty acid-free bovine serum albumin (BSA; Sigma, St Louis, Mo.) in the presence of α-tocopherol (Sigma) under an argon atmosphere and darkness to prevent oxidation of the fatty acids. The mixture was mixed with fresh Neurobasal medium containing B27 supplement, glutamine/glutamax mix and antibiotics. […]
Cells were fixed with […] (Sigma) in PBS (pH 7.4) for 30 min. […] After immunostaining, images were collected using an inverted motorized 1×81 Olympus (Melville, N.Y.) and the neurite length was analyzed with Metamorph software (Molecular Devices Corporation, Downingtown, Pa.). To minimize bias, neurons were evaluated blindly without the knowledge of sample identity. Four to six fields/well were chosen at random and only non-clustered neurons were evaluated to ensure the precision of the measurements. From each well, over 100 neurons were evaluated at 20× magnification for total neurite length/neuron. […]
FIG. 2 provides graphical results of the data shown in Table 2, expressed as total neurite length per neuron. FIG. 3 provides graphical results of these experiments for compounds 11-50 (having designations as provided in Table 1, above), expressed as relative neurite length as compared to untreated controls. […]
An additional assay was performed in which Compounds (A8), 4(A10), and 7(A9) were applied at varying dosages (from 10^−5 nM to 10 nM; 10^−5 nM, 10^−4 nM, 10^−2 nM, 0.1 nM, 1 nM, and 10 nM) as compared to DHA, synaptamide, and oleic acid. Neurite growth was measured at each dosage. […]

SMILES | Neurite Length/Neuron, individual values (cortical neurons, 10 nM (FIG. 2), 48 h, three individual values, listed as A7) | effect on relative neurite length as compared to synaptamide
CC/C=C\C/C=C\C/C=C\C/C=C\C/C=C\C/C=C\CCC(=O)NCCCCO [Compound 2, (4Z,7Z,10Z,13Z,16Z,19Z)—N-(4-hydroxybutyl)docosa-4,7,10,13,16,19-hexaenamide] | 7.6 μm and 7.4 μm and 5.8 μm | 
CC/C=C\C/C=C\C/C=C\C/C=C\C/C=C\C/C=C\CCC(=O)N[C@H]1CCCC[C@@H]1O [Compound 27, (4Z,7Z,10Z,13Z,16Z,19Z)—N-((1S,2S)-2-hydroxycyclohexyl)docosa-4,7,10,13,16,19-hexaenamide] |  | comparable or superior effect
CC/C=C\C/C=C\C/C=C\C/C=C\C/C=C\C/C=C\CCC(=O)NCCN [Compound 28, (4Z,7Z,10Z,13Z,16Z,19Z)—N-(2-aminoethyl)docosa-4,7,10,13,16,19-hexaenamide] |  | comparable or superior effect
CC/C=C\C/C=C\C/C=C\C/C=C\C/C=C\C/C=C\CCC(=O)N1CCOCC1 [Compound 29, (4Z,7Z,10Z,13Z,16Z,19Z)-1-morpholinodocosa-4,7,10,13,16,19-hexaen-1-one] |  | comparable or superior effect
